Source: paper PMC7675183

Biological target: histone H2B (mouse (endogenous in BMDMs))
Experiment: co-IP; endogenous proteins; extracts of BMDMs treated with LPS for the indicated time points; immunoblot

binding: binds
B1: USP38 (enzyme, UniProt Q8BW70 1-1042)
chain: MDKILEGLVSSSHPLPLKRMIVRKVVEFAEHWLDEAQCEAMFDLTTRLILEGQDPFQRQVGHQVLEAYARYHRPEFESFFNKTFVLGLLQQGYHSVDRKDVAILDYIHNGLKLIMSCPSVLDLFSLLQVEVLRMVCERPEPVLCARLSDLLTDFVQCVPKGKLSVTFCQQLVRTIGHFQCVSTQEKELREYVSQVTKVSTLLQNIWKAEPSTLLPSLQEVFASISSTDASFEPSVALASLVQHIPLQMITVLIRSLTTDPNVKDASMTQALCRMIDWLSWPLAQHVDTWVIALLKGLAAVQKFTILIDVTLLKIELVFNRLWFPLVRPGALAVLSHMLLSFQHSPEAFHVIVPHIVNLVHSFRSDGLPSSTAFLVQLTELVHCMMYHYSGFPDLYEPILEAVKDFPKPSEEKIKLILNQSAWTSQSNALASCLSRLSGKSETGKTGLINLGNTCYMNSVLQALFMATEFRRQVLSLNLNGCNSLMKKLQHLFAFLAHTQREAYAPRIFFEASRPPWFTPRSQQDCSEYLRFLLDRLHEEEKILRVQSSHKPSEGLDCAETCLQEVTSKVAVPTESPGTGDSEKTLIEKMFGGKLRTHICCLNCGSTSHKVEAFTDLSLAFCPSPSVEDLSFQDTASLPSAQDDGLMQTSVADPEEEPVVYNPATAAFVCDSVVNQRVLGSPPVEFHCAESSSVPEESAKILISKDVPQNPGGESTTSVTDLLNYFLAPEVLTGENQYYCESCASLQNAEKTMQITEEPEYLILTLLRFSYDQKYHVRRKILDNVSLPLVLELPVKRTASFSSLSQSWSVDVDFTDINENLPKKLKPSGTEEAFCPKLVPYLLSSVVVHSGVSSESGHYYSYARNITGTESSYQMCPQSESLALAPSQSCLLGVESPNTVIEQDLENKEMSQEWFLFNDSRVTFTSFQSVQKITSRFPKDTAYVLLYKKQSRANGIDSDNPASGVWANGDPPLQKELMDAITKDNKLYLQEQELNARARALQAASASCSFRPNGFDDNDPPGSCGPTGGGGGGGFNTVGRLVF

Results are given in words; binding and its absence hold for the method and conditions named. In cells and extracts the contact can be indirect. Binding calls can cover weak binding; strength is not graded here.
